± gives the standard deviation of the averaged measurements. The entries are a selection whose mix differs from that of the whole data set. Small differences around the control level are noise.
Compound: Nc1ncnc2c1ncn2[C@@H]1O[C@H](COP(=O)(O)OP(=O)(O)OP(=O)(O)O)[C@@H](O)[C@H]1O [adenosine triphosphate]
Experiment: NP40-soluble protein abundance relative to vehicle (solubility fold change) (ratio); higher = more soluble protein in presence of ATP
Summary of the method: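 Jurkat crude lysate (Dounce-homogenised) was treated with eight concentrations from 0.1 to 10 mM for 10 min at room temperature, then 3 min at 37 °C. It was solubilised with 0.8% NP40 and benzonase (60 min, 4 °C) and ultracentrifuged, and the supernatant was TMT-labelled for LC-MS/MS. Intensities were vsn-normalised, and the value is the fold change against the NP40-processed vehicle per replicate, from three independent experiments.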

Protein sequences, listed by entry. Tags and fused reporters are not part of them. Lines headed by an entry give the natural chain unless they say otherwise; changes in a name come on top.
UniProt Q96N64: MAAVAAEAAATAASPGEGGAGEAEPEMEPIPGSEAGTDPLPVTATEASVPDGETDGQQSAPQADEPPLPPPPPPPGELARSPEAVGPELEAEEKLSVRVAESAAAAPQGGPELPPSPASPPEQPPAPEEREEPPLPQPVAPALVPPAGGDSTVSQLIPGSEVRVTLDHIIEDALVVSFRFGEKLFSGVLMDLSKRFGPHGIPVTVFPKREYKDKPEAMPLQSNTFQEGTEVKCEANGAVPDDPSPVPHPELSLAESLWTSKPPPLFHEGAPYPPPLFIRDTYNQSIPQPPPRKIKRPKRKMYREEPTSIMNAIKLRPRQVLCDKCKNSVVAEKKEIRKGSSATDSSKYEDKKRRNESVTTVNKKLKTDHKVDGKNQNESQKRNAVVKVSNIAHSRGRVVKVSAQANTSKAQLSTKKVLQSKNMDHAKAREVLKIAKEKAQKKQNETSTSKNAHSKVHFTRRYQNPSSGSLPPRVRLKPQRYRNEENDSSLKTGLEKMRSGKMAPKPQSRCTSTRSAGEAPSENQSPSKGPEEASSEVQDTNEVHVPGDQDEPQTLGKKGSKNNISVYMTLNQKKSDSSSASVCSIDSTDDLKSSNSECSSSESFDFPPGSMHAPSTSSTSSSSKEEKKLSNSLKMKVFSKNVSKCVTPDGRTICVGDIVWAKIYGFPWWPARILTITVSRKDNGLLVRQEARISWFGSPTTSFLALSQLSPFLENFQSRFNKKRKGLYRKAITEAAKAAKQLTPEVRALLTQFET
UniProt Q96QE5: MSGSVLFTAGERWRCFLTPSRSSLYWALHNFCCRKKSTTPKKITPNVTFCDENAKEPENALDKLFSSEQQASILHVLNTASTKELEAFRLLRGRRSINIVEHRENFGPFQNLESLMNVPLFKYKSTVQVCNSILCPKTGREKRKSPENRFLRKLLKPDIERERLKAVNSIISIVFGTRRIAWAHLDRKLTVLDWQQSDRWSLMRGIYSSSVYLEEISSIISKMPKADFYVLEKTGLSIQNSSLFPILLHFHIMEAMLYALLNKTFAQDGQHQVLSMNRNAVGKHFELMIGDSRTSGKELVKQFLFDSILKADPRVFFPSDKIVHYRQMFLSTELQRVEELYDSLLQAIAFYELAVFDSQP
UniProt Q96QD8: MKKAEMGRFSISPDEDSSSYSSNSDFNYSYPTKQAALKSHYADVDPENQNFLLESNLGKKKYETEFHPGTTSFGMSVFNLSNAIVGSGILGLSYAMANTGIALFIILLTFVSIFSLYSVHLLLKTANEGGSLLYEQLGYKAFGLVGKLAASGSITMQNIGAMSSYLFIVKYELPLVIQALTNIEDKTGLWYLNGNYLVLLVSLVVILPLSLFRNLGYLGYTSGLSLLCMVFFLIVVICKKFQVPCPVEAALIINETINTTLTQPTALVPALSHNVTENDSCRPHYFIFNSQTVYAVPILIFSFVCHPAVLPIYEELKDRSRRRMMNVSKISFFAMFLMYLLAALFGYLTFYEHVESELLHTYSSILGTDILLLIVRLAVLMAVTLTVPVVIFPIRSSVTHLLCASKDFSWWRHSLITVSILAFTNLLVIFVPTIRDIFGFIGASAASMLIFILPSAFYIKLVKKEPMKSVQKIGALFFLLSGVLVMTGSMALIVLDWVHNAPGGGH
UniProt Q96BW5: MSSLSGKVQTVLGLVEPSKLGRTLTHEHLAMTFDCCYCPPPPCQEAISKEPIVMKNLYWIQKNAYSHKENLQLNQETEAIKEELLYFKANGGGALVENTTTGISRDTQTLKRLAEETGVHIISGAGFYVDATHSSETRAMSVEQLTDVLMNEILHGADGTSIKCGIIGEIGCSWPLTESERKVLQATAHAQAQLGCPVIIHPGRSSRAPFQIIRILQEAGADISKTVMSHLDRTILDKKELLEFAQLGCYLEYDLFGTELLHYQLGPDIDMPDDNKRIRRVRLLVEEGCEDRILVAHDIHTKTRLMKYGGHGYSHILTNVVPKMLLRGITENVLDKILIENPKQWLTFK
UniProt Q96E14: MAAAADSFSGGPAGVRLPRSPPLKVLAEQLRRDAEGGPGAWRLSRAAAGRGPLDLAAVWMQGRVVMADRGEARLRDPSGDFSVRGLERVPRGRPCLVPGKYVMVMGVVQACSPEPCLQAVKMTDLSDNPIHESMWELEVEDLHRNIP
UniProt Q96CU9: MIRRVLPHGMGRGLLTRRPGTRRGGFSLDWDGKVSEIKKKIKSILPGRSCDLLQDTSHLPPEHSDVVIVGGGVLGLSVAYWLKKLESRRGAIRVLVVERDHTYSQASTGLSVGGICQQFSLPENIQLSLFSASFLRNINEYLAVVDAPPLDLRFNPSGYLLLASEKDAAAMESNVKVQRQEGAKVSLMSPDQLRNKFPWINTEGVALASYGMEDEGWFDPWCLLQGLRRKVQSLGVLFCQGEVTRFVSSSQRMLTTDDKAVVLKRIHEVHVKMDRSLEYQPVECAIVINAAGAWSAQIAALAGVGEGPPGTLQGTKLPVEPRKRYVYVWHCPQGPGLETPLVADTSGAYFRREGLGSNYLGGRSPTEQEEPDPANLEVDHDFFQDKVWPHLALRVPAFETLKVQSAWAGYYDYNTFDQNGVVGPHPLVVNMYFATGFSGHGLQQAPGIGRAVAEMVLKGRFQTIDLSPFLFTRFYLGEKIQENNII
UniProt Q96FZ7: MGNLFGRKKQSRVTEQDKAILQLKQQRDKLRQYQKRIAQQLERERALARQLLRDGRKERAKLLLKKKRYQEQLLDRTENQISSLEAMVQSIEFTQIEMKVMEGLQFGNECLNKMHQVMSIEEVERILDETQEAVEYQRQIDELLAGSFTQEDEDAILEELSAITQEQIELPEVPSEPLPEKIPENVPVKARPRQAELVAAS
UniProt Q96DA6: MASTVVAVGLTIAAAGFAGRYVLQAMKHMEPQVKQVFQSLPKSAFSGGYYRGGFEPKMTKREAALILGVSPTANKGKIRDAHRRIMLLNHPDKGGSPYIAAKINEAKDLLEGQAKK
UniProt Q96H20: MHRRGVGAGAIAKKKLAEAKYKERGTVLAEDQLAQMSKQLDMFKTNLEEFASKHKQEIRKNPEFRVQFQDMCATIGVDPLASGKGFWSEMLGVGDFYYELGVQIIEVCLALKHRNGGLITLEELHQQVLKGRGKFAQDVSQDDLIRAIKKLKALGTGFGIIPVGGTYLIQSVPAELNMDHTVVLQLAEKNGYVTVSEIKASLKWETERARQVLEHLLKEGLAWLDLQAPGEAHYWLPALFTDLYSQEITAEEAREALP
UniProt Q96EU6: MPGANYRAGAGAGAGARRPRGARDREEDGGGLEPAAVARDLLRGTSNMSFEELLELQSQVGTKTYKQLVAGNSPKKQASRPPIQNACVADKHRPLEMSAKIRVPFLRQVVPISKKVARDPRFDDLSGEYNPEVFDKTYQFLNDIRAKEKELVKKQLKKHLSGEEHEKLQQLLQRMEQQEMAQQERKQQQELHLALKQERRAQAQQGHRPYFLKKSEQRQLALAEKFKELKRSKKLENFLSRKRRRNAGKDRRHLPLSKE
UniProt Q96PK6: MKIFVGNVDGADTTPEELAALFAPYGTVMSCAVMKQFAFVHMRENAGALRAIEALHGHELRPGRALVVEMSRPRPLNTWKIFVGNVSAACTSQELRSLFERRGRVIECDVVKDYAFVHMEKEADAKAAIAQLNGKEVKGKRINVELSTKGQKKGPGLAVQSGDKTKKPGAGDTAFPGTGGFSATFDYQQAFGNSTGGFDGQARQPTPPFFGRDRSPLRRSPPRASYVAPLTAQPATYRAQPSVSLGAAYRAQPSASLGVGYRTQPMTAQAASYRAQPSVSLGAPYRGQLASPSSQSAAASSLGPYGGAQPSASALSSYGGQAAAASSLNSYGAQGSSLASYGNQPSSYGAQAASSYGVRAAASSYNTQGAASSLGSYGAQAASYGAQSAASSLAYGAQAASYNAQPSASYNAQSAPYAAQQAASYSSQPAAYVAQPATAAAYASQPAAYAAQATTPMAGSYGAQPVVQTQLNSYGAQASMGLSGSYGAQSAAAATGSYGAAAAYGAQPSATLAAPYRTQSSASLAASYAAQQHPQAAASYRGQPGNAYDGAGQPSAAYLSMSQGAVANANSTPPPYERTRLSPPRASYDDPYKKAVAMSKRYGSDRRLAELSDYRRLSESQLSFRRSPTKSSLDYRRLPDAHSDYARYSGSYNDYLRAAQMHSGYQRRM
UniProt Q96S99: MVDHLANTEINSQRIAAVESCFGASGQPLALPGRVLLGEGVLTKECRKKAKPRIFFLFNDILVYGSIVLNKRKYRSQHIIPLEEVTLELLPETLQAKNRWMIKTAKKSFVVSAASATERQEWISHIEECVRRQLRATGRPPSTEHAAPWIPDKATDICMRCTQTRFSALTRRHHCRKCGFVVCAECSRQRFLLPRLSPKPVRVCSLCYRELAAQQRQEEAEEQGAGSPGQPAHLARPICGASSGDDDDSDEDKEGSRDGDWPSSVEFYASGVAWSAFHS
UniProt Q96DT7: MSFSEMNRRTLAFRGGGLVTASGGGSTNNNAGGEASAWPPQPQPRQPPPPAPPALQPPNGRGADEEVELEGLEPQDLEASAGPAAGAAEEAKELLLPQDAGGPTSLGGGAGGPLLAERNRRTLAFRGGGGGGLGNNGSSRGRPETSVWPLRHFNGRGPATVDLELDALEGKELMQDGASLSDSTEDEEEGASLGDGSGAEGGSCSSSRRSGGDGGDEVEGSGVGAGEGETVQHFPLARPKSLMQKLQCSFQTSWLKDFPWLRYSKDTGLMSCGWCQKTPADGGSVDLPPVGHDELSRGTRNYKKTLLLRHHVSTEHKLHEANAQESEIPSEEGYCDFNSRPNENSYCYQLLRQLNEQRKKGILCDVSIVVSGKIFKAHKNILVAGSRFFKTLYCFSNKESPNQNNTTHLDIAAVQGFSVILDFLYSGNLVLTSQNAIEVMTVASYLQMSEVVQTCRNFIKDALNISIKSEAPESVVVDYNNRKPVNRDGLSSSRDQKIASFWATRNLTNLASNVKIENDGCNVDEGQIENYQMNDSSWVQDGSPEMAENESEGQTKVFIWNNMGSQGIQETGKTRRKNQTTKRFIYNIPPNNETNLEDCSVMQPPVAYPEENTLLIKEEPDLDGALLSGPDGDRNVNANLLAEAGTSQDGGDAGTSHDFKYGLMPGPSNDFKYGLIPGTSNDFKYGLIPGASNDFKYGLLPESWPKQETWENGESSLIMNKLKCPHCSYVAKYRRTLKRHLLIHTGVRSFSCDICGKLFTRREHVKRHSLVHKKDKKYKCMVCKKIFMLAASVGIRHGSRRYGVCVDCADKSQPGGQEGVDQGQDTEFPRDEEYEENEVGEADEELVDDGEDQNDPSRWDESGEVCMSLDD
UniProt Q96HW7, whole entry: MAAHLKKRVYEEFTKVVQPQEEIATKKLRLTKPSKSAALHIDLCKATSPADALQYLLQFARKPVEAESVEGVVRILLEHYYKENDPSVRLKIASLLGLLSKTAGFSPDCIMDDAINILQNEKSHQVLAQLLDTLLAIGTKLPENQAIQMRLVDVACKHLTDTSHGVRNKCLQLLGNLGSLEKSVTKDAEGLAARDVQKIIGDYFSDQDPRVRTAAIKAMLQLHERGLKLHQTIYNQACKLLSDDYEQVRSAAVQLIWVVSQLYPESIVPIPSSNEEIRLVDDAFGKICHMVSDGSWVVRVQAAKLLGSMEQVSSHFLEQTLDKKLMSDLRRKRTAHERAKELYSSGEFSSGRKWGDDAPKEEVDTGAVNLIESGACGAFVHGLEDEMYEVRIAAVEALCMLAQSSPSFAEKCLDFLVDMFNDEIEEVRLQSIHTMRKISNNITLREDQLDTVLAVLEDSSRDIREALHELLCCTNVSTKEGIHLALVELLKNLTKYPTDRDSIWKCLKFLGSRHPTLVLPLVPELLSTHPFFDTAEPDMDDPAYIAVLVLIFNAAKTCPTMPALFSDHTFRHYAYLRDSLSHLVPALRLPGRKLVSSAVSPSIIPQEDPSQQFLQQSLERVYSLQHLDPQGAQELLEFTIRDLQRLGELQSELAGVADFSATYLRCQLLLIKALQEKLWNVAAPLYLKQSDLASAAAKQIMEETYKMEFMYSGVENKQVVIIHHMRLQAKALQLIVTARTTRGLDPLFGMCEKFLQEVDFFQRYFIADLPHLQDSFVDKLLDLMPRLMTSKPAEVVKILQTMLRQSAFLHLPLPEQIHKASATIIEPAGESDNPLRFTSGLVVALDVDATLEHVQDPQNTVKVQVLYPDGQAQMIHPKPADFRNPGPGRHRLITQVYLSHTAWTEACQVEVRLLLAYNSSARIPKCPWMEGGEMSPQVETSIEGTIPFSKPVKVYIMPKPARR
UniProt Q96EE3: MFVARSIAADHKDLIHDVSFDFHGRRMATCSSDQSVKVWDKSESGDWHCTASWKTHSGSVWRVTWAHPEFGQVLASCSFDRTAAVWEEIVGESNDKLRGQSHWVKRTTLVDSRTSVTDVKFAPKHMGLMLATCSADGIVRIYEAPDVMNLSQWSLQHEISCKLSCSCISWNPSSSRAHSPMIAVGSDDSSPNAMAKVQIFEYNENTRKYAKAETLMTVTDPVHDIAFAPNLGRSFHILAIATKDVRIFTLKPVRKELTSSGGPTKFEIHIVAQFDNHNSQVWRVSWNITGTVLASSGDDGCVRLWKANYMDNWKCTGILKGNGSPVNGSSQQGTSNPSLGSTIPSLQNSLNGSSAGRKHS

Target	NP40-soluble protein abundance (concentration: 0.1mM)	NP40-soluble protein abundance (concentration: 0.5mM)
PWWP2A (UniProt Q96N64)	0.946 ± 0.065	0.923 ± 0.075
UniProt Q96QE5 and related entries	1.07 ± 0.12	1.08 ± 0.019
DCPS (UniProt Q96C86)	1.04 ± 0.062	1.05 ± 0.057
UniProt Q96QD8 and related entries	1 ± 0.059	1 ± 0.027
DPH3 (UniProt Q96FX2)	1.08 ± 0.27	0.994 ± 0.23
UniProt Q96EB1 and related entries	0.988 ± 0.014	1.008 ± 0.01
UniProt Q96BW5 and related entries	1.05 ± 0.048	1.04 ± 0.059
RMI2 (UniProt Q96E14)	0.97 ± 0.095	0.915 ± 0.11
UniProt Q96CU9 and related entries	1.02 ± 0.048	1.04 ± 0.06
SPAG5 (UniProt Q96R06)	0.986 ± 0.025	1.02 ± 0.031
UniProt Q96RF0-2|Q96RF0 and related entries	1.08 ± 0.14	1 ± 0.12
CHMP6 (UniProt Q96FZ7)	0.883 ± 0.081	0.869 ± 0.1
UniProt Q96FZ2	1.01 ± 0.044	1.02 ± 0.064
UniProt Q96DA6 and related entries	0.863 ± 0.096	0.895 ± 0.15
SNF8 (UniProt Q96H20)	1.02 ± 0.032	0.942 ± 0.057
UniProt Q96G03 and related entries	1.03 ± 0.093	1.03 ± 0.055
UniProt Q96EH3	1.12 ± 0.043	1.07 ± 0.082
UniProt Q96EU6 and related entries	0.932 ± 0.064	0.934 ± 0.01
RBM14 (UniProt Q96PK6)	0.991 ± 0.023	1.01 ± 0.028
ATAD5 (UniProt Q96QE3)	1.09 ± 0.12	1.09 ± 0.12
UniProt Q96HI0 and related entries	0.983 ± 0.04	0.9728 ± 0.007
UniProt Q96JG8 and related entries	1.06 ± 0.053	1.15 ± 0.014
PLEKHF1 (UniProt Q96S99)	1.03 ± 0.075	1 ± 0.041
UniProt Q96ED9 and related entries	0.956 ± 0.04	0.932 ± 0.15
ZBTB10 (UniProt Q96DT7)	0.965 ± 0.072	1.05 ± 0.065
PIGS (UniProt Q96S52)	1.02 ± 0.046	1.06 ± 0.048
FAM136A (UniProt Q96C01)	0.902 ± 0.089	0.908 ± 0.14
INTS4 (UniProt Q96HW7)	1.05 ± 0.025	1.07 ± 0.03
UniProt Q96EE3 and related entries	1.05 ± 0.051	1.05 ± 0.016
AJUBA (UniProt Q96IF1)	1.01 ± 0.12	0.994 ± 0.029

Source: the supplement of paper PMC6411743
